{"source": "PubChem BioAssay AID1259405 (NCATS, 2018)", "aim": "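Knock-downs that lift recombinant protein yield in hamster ovary cells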 (primary screen)", "system": "Chinese hamster CHO-K1 ovary cells with stable secreted eGFP expression", "reagents": "single siRNA against mouse genes, 0.8 pmol siRNA per well (2 µl of 400 nM stock)", "duration": "3 days", "detection": "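Per-well intracellular GFP measured by laser scanning cytometry, plus viability from ATP luminescence, each relative to plate median of non-targeting control wells, in %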", "direction": "GFP, % of control: higher = more GFP per well, higher productivity; viability (ATP), % of control: higher = more viable cells (more ATP)", "rule for the call": "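Called active when intracellular GFP, relative to negative control, is at or above 120%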", "note": "This is one part, drawn at random, of about 50,000 reagents. About 4,000 of them (8%) were called active. 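Mouse siRNA library applied to hamster cells; one well for each siRNA.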 Reagents against one gene are numbered here."}
{"Gene": "Pnpla6", "siRNA no.": 1, "GFP, % of control": 85.1, "viability (ATP), % of control": 70.6, "outcome": "inactive"}
{"Gene": "Pnpla6", "siRNA no.": 2, "GFP, % of control": 182, "viability (ATP), % of control": 160, "outcome": "active"}
{"Gene": "Pnpla6", "siRNA no.": 3, "GFP, % of control": 50.3, "viability (ATP), % of control": 56.7, "outcome": "inactive"}
{"Gene": "Stk-ps2", "siRNA no.": 1, "GFP, % of control": 117, "viability (ATP), % of control": 73.1, "outcome": "inactive"}
{"Gene": "Stk-ps2", "siRNA no.": 2, "GFP, % of control": 49.8, "viability (ATP), % of control": 61.5, "outcome": "inactive"}
{"Gene": "Stk-ps2", "siRNA no.": 3, "GFP, % of control": 80.9, "viability (ATP), % of control": 71.8, "outcome": "inactive"}
{"Gene": "Ncald", "siRNA no.": 1, "GFP, % of control": 80.8, "viability (ATP), % of control": 86.2, "outcome": "inactive"}
{"Gene": "Ncald", "siRNA no.": 2, "GFP, % of control": 61.8, "viability (ATP), % of control": 60.2, "outcome": "inactive"}
{"Gene": "Dqx1", "siRNA no.": 1, "GFP, % of control": 107, "viability (ATP), % of control": 97.5, "outcome": "inactive"}
{"Gene": "Dqx1", "siRNA no.": 2, "GFP, % of control": 68.7, "viability (ATP), % of control": 88.2, "outcome": "inactive"}
{"Gene": "Dqx1", "siRNA no.": 3, "GFP, % of control": 57.5, "viability (ATP), % of control": 54.9, "outcome": "inactive"}
{"Gene": "Gpr137c", "siRNA no.": 1, "GFP, % of control": 151, "viability (ATP), % of control": 113, "outcome": "active"}
{"Gene": "Gpr137c", "siRNA no.": 2, "GFP, % of control": 49.5, "viability (ATP), % of control": 78.7, "outcome": "inactive"}
{"Gene": "Gpr137c", "siRNA no.": 3, "GFP, % of control": 81.1, "viability (ATP), % of control": 77.6, "outcome": "inactive"}
{"Gene": "Or8b4", "siRNA no.": 1, "GFP, % of control": 73.2, "viability (ATP), % of control": 33.3, "outcome": "inactive"}
{"Gene": "Or8b4", "siRNA no.": 2, "GFP, % of control": 39, "viability (ATP), % of control": 70.6, "outcome": "inactive"}
{"Gene": "Or8b4", "siRNA no.": 3, "GFP, % of control": 103, "viability (ATP), % of control": 115, "outcome": "inactive"}
{"Gene": "Or51f1", "siRNA no.": 1, "GFP, % of control": 89.2, "viability (ATP), % of control": 78.9, "outcome": "inactive"}
{"Gene": "Or51f1", "siRNA no.": 2, "GFP, % of control": 86.8, "viability (ATP), % of control": 85.8, "outcome": "inactive"}
{"Gene": "Or51f1", "siRNA no.": 3, "GFP, % of control": 63.7, "viability (ATP), % of control": 103, "outcome": "inactive"}
{"Gene": "Uroc1", "siRNA no.": 1, "GFP, % of control": 56.5, "viability (ATP), % of control": 28.6, "outcome": "inactive"}
{"Gene": "Uroc1", "siRNA no.": 2, "GFP, % of control": 55, "viability (ATP), % of control": 78.1, "outcome": "inactive"}
{"Gene": "Uroc1", "siRNA no.": 3, "GFP, % of control": 114, "viability (ATP), % of control": 131, "outcome": "inactive"}
{"Gene": "5031434C07Rik", "siRNA no.": 1, "GFP, % of control": 80.2, "viability (ATP), % of control": 81.1, "outcome": "inactive"}
{"Gene": "5031434C07Rik", "siRNA no.": 2, "GFP, % of control": 73.3, "viability (ATP), % of control": 94.3, "outcome": "inactive"}
{"Gene": "5031434C07Rik", "siRNA no.": 3, "GFP, % of control": 150, "viability (ATP), % of control": 134, "outcome": "active"}
{"Gene": "Cd48", "siRNA no.": 1, "GFP, % of control": 69.5, "viability (ATP), % of control": 60.3, "outcome": "inactive"}
{"Gene": "Cd48", "siRNA no.": 2, "GFP, % of control": 92, "viability (ATP), % of control": 59.4, "outcome": "inactive"}
{"Gene": "Cd48", "siRNA no.": 3, "GFP, % of control": 108, "viability (ATP), % of control": 65.1, "outcome": "inactive"}
{"Gene": "Dennd1b", "siRNA no.": 1, "GFP, % of control": 55.5, "viability (ATP), % of control": 53.6, "outcome": "inactive"}
{"Gene": "Dennd1b", "siRNA no.": 2, "GFP, % of control": 69.1, "viability (ATP), % of control": 73.6, "outcome": "inactive"}
{"Gene": "Dennd1b", "siRNA no.": 3, "GFP, % of control": 138, "viability (ATP), % of control": 116, "outcome": "active"}
{"Gene": "Nppa", "siRNA no.": 1, "GFP, % of control": 80.5, "viability (ATP), % of control": 72, "outcome": "inactive"}
{"Gene": "Nppa", "siRNA no.": 2, "GFP, % of control": 77.9, "viability (ATP), % of control": 62.3, "outcome": "inactive"}
{"Gene": "Nppa", "siRNA no.": 3, "GFP, % of control": 36.8, "viability (ATP), % of control": 46.9, "outcome": "inactive"}
{"Gene": "Bmp10", "siRNA no.": 1, "GFP, % of control": 85.7, "viability (ATP), % of control": 61.8, "outcome": "inactive"}
{"Gene": "Bmp10", "siRNA no.": 2, "GFP, % of control": 28.8, "viability (ATP), % of control": 18.6, "outcome": "inactive"}
{"Gene": "Bmp10", "siRNA no.": 3, "GFP, % of control": 67.7, "viability (ATP), % of control": 58.6, "outcome": "inactive"}
{"Gene": "Gba1", "siRNA no.": 1, "GFP, % of control": 71.9, "viability (ATP), % of control": 83.3, "outcome": "inactive"}
{"Gene": "Gba1", "siRNA no.": 2, "GFP, % of control": 92.7, "viability (ATP), % of control": 76.7, "outcome": "inactive"}
{"Gene": "Gba1", "siRNA no.": 3, "GFP, % of control": 86.6, "viability (ATP), % of control": 55.9, "outcome": "inactive"}

Entries listed so far called active, once more:
{"Gene": "Pnpla6", "siRNA no.": 2, "GFP, % of control": 182, "viability (ATP), % of control": 160, "outcome": "active"}
{"Gene": "Gpr137c", "siRNA no.": 1, "GFP, % of control": 151, "viability (ATP), % of control": 113, "outcome": "active"}
{"Gene": "5031434C07Rik", "siRNA no.": 3, "GFP, % of control": 150, "viability (ATP), % of control": 134, "outcome": "active"}
{"Gene": "Dennd1b", "siRNA no.": 3, "GFP, % of control": 138, "viability (ATP), % of control": 116, "outcome": "active"}
